Laboratory results published in patent US4459225 (dated 1984).
Square brackets hold non-standard residues; d marks the D form. * marks the point of attachment. Boc = CC(C)(C)OC(=O)*; tBu = CC(C)(C)*; For = O=C*

Assay: general procedure: solution-phase peptide synthesis; dicyclohexylcarbodiimide/1-hydroxybenzotriazole; active esters (N-hydroxysuccini)
Conditions: coupling step, trifluoroacetate

Substance	step yield [%]
Boc-Y(tBu)[dK](For)GF-OH	71
tert.Butyloxycarbonyl-O-tert.butyl-tyrosyl-D-N^ε -formyllysyl-glycyl-dehydrophenylalanyl-prolinamide	43
D-N^ε -formyllysyl-glycyl-dehydrophenylalanine-prolinamide-hydrobromide	70
BOC-Tyr-D-Lys(For)-Gly-NH-CH(CH2 OH)-CHOH-C6 H5	96

Same assay, conditions: late stage modification step, trifluoroacetate

Substance	step yield [%]
L-Tyrosyl-D-N^ε -formyllysyl-glycyl-dehydrophenylalanyl-L-prolinamide-trifluoroacetate	92
D-N^ε-formyllysyl-glycyl-dehydrophenylalanine-prolinamide-hydrobromide	96
L-Tyrosyl-D-N^ε -formyllysyl-glycyl-L-phenylalanyl-homocysteine-thiolactone-trifluoroacetate	85
